PubChem BioAssay AID901 (National Center for Advancing Translational Sciences (NCATS), 2007)
Some of the results follow. The main result of the screen is listed elsewhere. These columns were measured beside it and carry no call. Compounds called inactive in the main read-out are mostly missing here. Potencies come from curve fits of mixed quality, noted in brackets.

test: qHTS Assay for Identifying the Cell-Membrane Permeable IMPase Inhibitors; settings: CHO-M1 cells, IP1 accumulation, HTRF TR-FRET ratio; measured here: donor channel 620 nm AC50

SMILES	AC50
O=C(Cc1ccc(-c2ccccc2)cc1)N1CCOCC1	3.98 µM [rising, partial curve, poor fit]
CCc1nnc(NC(=O)CSc2nc(C3CCCCC3)nc3ccccc23)s1	3.98 µM [rising, partial curve]
CN(C(=O)COC(=O)c1ccccc1Nc1ccccc1)C1CCS(=O)(=O)C1 (stereo unspecified)	0.794 µM [falling, full curve, poor fit]
CCCCc1nc2sc3c(SCC(=O)NCc4ccco4)ncnc3c2c2c1CCC2	3.16 µM [rising, partial curve, poor fit]
CCOC(=O)c1c(C)oc2ccc(N(C(=O)Oc3ccccc3)S(=O)(=O)c3ccccc3)cc12	35.5 µM [rising, single point]
Cc1cccc(-n2ncc3c(NCCN4CCOCC4)ncnc32)c1	10 µM [rising, partial curve]
Cc1nc2scc(C)n2c(=O)c1S(=O)(=O)Nc1ccc(N2CCOCC2)c(Cl)c1	5.62 µM [falling, single point]
Cc1nc2ccccc2nc1SCC(=O)N1CCC(C)CC1	12.6 µM [rising, partial curve]
O=C(CN(C(=O)C1CSC(=O)C1)c1ccccc1F)NCc1ccc2c(c1)OCO2 (stereo unspecified)	3.98 µM [falling, single point]
COC(=O)c1ccc(/C=C/c2ccc3cccc(OC)c3n2)cc1	11.2 µM [rising, single point]
NC(=O)c1ccccc1NC(=O)c1ccc(-c2ccc(Br)cc2)o1	15.8 µM [rising, single point]
CCOC(=O)CC(=O)CSc1ncnc2c1cnn2-c1ccccc1	6.31 µM [falling, single point]
COC(=O)c1ccccc1S(=O)(=O)Nc1ccc(OC)nc1	31.6 µM [falling, single point]
Cc1nc2c(c(=O)n1CCC(C)C)c1nc3ccccc3nc1n2Cc1ccc2c(c1)OCO2	1 µM [rising, full curve, poor fit]
CCS(=O)(=O)n1nc(-c2ccccc2)nc1NCc1ccco1	0.794 µM [falling, full curve]
Cc1ccccc1Cn1ccc(NC(=O)c2cnn3c2NC(c2ccccc2)CC3C(F)(F)F)n1 (stereo unspecified)	0.794 µM [falling, partial curve, poor fit]
CCOc1ccccc1-c1c2cc(O)c(=O)cc-2oc2cc(O)c(O)cc12	11.2 µM [falling, partial curve]
CC(C)Cn1[nH]c2c3c(ccc2c1=O)C(=O)c1ccccc1C3=O	10 µM [falling, partial curve]
COC(=O)CSc1nc(N)c(C#N)c(-c2ccco2)c1C#N	31.6 µM [rising, single point]
COCCCNC(=O)CS(=O)(=O)Cc1nc(-c2ccccc2C)oc1C	35.5 µM [falling, partial curve, poor fit]
CCOc1ccc(-c2nc(SCC(=O)NCCOC)c(-c3ccc(OC)c(OC)c3)[nH]2)cc1	35.5 µM [falling, single point]
CC1CCCC(N2C(=O)NC(NC(=O)c3ccco3)(C(F)(F)F)C2=O)C1C (stereo unspecified)	10 µM [falling, partial curve, poor fit]

SMILES	AC50
CC(C)Oc1cccc(C(=O)NC(=S)Nc2ccc3c4c(cccc24)CC3)c1	2.51 µM [rising, full curve, poor fit]
CCCCOC(=O)C(NC(=O)c1ccccc1)=C(C)C	5.01 µM [falling, full curve, poor fit]
Cc1cc2nn(-c3ccc(Cl)cc3)nc2cc1NC(=O)C(C)C	12.6 µM [rising, partial curve]
CCOc1ccccc1NC(=O)c1ccc(F)c(S(=O)(=O)N2CCC3(CC2)OCCO3)c1	1.26 µM [rising, full curve, poor fit]
COCCCN1C(=O)C(=O)/C(=C(/O)c2ccc(C)cc2)C1c1ccccc1 (stereo unspecified)	0.316 µM [rising, full curve, poor fit]
COc1ccccc1NC(=O)NC1(C(=O)N2CCC(O)CC2)CCCCC1	0.0398 µM [falling, full curve, poor fit]
Cc1cc(C)cc(-n2nnc(C(=O)NCc3ccccc3)c2N)c1	8.91 µM [falling, partial curve]
COC(=O)[C@@H](NC(=O)Nc1ccc2c(c1)OCCO2)C(C)C	0.0251 µM [rising, full curve, poor fit]
Oc1ccc(Cl)cc1-c1cc(-c2ccccc2)n[nH]1	7.94 µM [rising, full curve, poor fit]
COc1ccc(NC(=O)C(Cc2ccccc2)NS(=O)(=O)c2ccc(Br)s2)cc1OC (stereo unspecified)	0.0282 µM [falling, full curve]
O=C(Nc1ccc2c(c1)OCO2)N1CCOCC1	3.98 µM [rising, partial curve]
Cc1ccc(-c2noc(CCC(=O)Nc3ccc(F)cc3Cl)n2)cc1	0.0316 µM [falling, full curve, poor fit]
Cc1cccc(/C=c2\s/c(=C\C(=O)C(C)(C)C)[nH]c2=O)c1	5.01 µM [falling, single point]
O=C(CSc1ncc(-c2ccc(F)cc2)[nH]1)Nc1cccc(O)c1	0.794 µM [falling, full curve, poor fit]
CCn1c2ccccc2c2cc(NC(=O)COc3cc(C)c(Cl)c(C)c3)ccc21	0.355 µM [falling, full curve]
N#CC(C(=O)O)=C1CCCC1	3.16 µM [rising, partial curve, poor fit]
O=C1c2ccccc2S(=O)(=O)N1CC1CC(c2ccccc2)=NO1 (stereo unspecified)	0.794 µM [falling, full curve]
O=C(CCc1ccc(S(=O)(=O)NCc2ccccc2)cc1)N1CCN(Cc2ccc3c(c2)OCO3)CC1	3.16 µM [rising, partial curve]
O=C(Nc1ccn(Cc2c(F)c(F)cc(F)c2F)n1)c1ccc(COc2ccccc2Cl)cc1	0.794 µM [falling, single point]
COc1ccc(-c2c3c([nH]c(=S)c2C#N)CCC3)cc1	12.6 µM [rising, partial curve]
Cc1ccnc(NS(=O)(=O)c2cccs2)c1	35.5 µM [falling, single point]
CS(=O)(=O)N1CCN(c2ccccc2NC(=O)c2ccc3ccccc3c2)CC1	25.1 µM [falling, single point]

SMILES	AC50
COC(=O)CCN(C(=O)c1ccc(OC(C)=O)cc1)c1ccccn1	0.0251 µM [rising, partial curve, poor fit]
c1ccc(Nc2ccc3c4c(cccc24)CC3)cc1	3.16 µM [falling, single point]
CCSc1cc(N2CCCC2)nc(-c2ccc(F)cc2)n1	0.2 µM [rising, full curve, poor fit]
Cc1ccc(SC(C)C(=O)N2CCCC2)cc1 (stereo unspecified)	25.1 µM [falling, single point]
Cc1cccc(Nc2nc(-c3ccccc3)nc3ccccc23)c1	3.98 µM [falling, single point]
Cc1ccc(S(=O)(=O)c2nc(-c3cccs3)oc2N2CCC(C)CC2)cc1	5.62 µM [falling, single point]
COc1ccc(-c2nn(C)c3sc(C(=O)NCc4ccco4)cc23)cc1OC	31.6 µM [rising, single point]
COc1ccc(C(c2nnnn2CS(=O)(=O)c2ccc(C)cc2)N2CCN(c3ncccn3)CC2)cc1 (stereo unspecified)	12.6 µM [rising, partial curve, poor fit]
CCC(C)OC(=O)/C(C#N)=C/c1ccc(-c2ccc(Br)cc2)o1 (stereo unspecified)	3.98 µM [rising, single point]
N#Cc1c(N)n(C2CCCCC2)c2nc3ccccc3nc12	0.631 µM [falling, full curve, poor fit]
Cn1cc(SCC(N)=O)c2ccccc21	0.631 µM [falling, full curve]
CCc1nnc2sc(-c3cc(-c4ccccc4)nc4ccccc34)nn12	22.4 µM [rising, partial curve]
CC(C)(C)n1nc2c(c1NC(=O)COc1ccc(Cl)cc1)CSC2	6.31 µM [falling, single point]
CCOC(=O)c1[nH]c2c(c1Cc1ccccc1)C(=O)CC(c1ccc(C(C)(C)C)cc1)C2 (stereo unspecified)	35.5 µM [falling, single point]
CCCN(Cc1ccc(N(CC)CC)cc1)CC1CC1	0.00631 µM [falling, full curve, poor fit]
NC(=O)Cc1cn(-c2ncc(C(F)(F)F)cc2Cl)c2ccccc12	12.6 µM [falling, partial curve]
COc1cccc(C2N(c3ccccn3)C(=O)C3CCCN32)c1OC (stereo unspecified)	2 µM [rising, full curve, poor fit]
CCOC(=O)CC(=O)CSc1nc2c(sc(=S)n2-c2ccccc2)c(=O)[nH]1	5.01 µM [rising, single point]
CCCC1c2ccc(C)n2CCN1C(=O)Nc1ccccc1Cl (stereo unspecified)	1.26 µM [falling, full curve]
COCCn1nnnc1CN1CCN(c2cccc(C(F)(F)F)c2)CC1	3.98 µM [rising, full curve]
CCOc1ccc(NCCC(=O)c2ccc3c(c2)OCO3)cc1	2.82 µM [falling, full curve, poor fit]
C=CCN1C(=O)NC2(CCCCC2)C1=O	0.00501 µM [falling, full curve, poor fit]

Part of the list above, with each value named.
Cc1cccc(Nc2nc(-c3ccccc3)nc3ccccc23)c1
  AC50: 3.98 µM [falling, single point]
COc1ccc(C(c2nnnn2CS(=O)(=O)c2ccc(C)cc2)N2CCN(c3ncccn3)CC2)cc1 (stereo unspecified)
  AC50: 12.6 µM [rising, partial curve, poor fit]
CCCN(Cc1ccc(N(CC)CC)cc1)CC1CC1
  AC50: 0.00631 µM [falling, full curve, poor fit]
CCCC1c2ccc(C)n2CCN1C(=O)Nc1ccccc1Cl (stereo unspecified)
  AC50: 1.26 µM [falling, full curve]
